# According to the supplement of paper PMC8728848:
# Some of the results follow.
# B1: DCL-1 (Homo sapiens), Q8IX05 (protein)
# chain: MLRAALPALLLPLLGLAAAAVADCPSSTWIQFQDSCYIFLQEAIKVESIEDVRNQCTDHGADMISIHNEEENAFILDTLKKQWKGPDDILLGMFYDTDDASFKWFDNSNMTFDKWTDQDDDEDLVDTCAFLHIKTGEWKKGNCEVSSVEGTLCKTAIPYKRKYLSDNHILISALVIASTVILTVLGAIIWFLYKKHSDSRFTTVFSTAPQSPYNEDCVLVVGEENEYPVQFD
# Assays:
# Test in all cases: glycan array binding signal (z-score within array); higher = stronger binding
# Conditions in all cases: glycan notation: IUPAC condensed, linker removed
# [1] = biological target: Gal6S(b1-4)Glc6S
# In short: (§1)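 Glycan array binding is given as a within-array Z-score, which can be read as non-binding when negative. The arrays, 3228 of them, came from the Consortium for Functional Glycomics database and were retained only where the protein sequence was available. Z-scores were averaged across arrays of the same protein sequence at different concentrations or buffers and across linkers.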
# [2] = biological target: Gal6S(b1-4)GlcNAc
# In short: as §1
# [3] = biological target: Gal6S(b1-4)GlcNAc6S
# In short: as §1
# [4] = biological target: GalNAc(a1-3)Gal
# In short: as §1
# [5] = biological target: GalNAc(a1-3)GalNAc
# In short: as §1
# [6] = biological target: GalNAc(a1-3)GalNAc(b1-3)Gal(a1-4)Gal(b1-4)Glc
# In short: as §1
# [7] = biological target: GalNAc(a1-3)GalNAc(b1-3)Gal(a1-4)Gal(b1-4)GlcNAc
# In short: as §1
# [8] = biological target: GalNAc(b1-3)Gal
# In short: as §1
# [9] = biological target: GalNAc(b1-3)Gal(a1-4)Gal(b1-4)GlcNAc
# In short: as §1
# [10] = biological target: GalNAc(b1-3)Gal(a1-4)Gal(b1-4)GlcNAc(b1-3)Gal(b1-4)Glc
# In short: as §1
# [11] = biological target: GalNAc(b1-3)Gal(a1-6)Gal(b1-4)Glc
# In short: as §1
# [12] = biological target: GalNAc(b1-3)GalNAc
# In short: as §1
# [13] = biological target: GalNAc(b1-4)Gal(b1-4)Glc
# In short: as §1
# [14] = biological target: GalNAc(b1-4)GlcNAc
# In short: as §1
# [15] = biological target: GalNAc(b1-4)GlcNAc(b1-2)Man(a1-3)[GalNAc(b1-4)GlcNAc(b1-2)Man(a1-6)]Man(b1-4)GlcNAc(b1-4)GlcNAc
# In short: as §1
# [16] = biological target: GalNAc(b1-6)GalNAc
# In short: as §1
# [17] = biological target: Glc(a1-4)Glc
# In short: as §1
# [18] = biological target: Glc(a1-4)Glc(a1-4)Glc(a1-4)Glc
# In short: as §1
# [19] = biological target: Glc(a1-6)Glc(a1-6)Glc
# In short: as §1
# [20] = biological target: Glc(a1-6)Glc(a1-6)Glc(a1-6)Glc
# In short: as §1
# [21] = biological target: Glc(b1-4)Glc
# In short: as §1
# [22] = biological target: Glc(b1-6)Glc
# In short: as §1
# [23] = biological target: GlcA(b1-3)Gal
# In short: as §1
# [24] = biological target: GlcA(b1-3)GlcNAc
# In short: as §1
# [25] = biological target: GlcA(b1-6)Gal
# In short: as §1
# [26] = biological target: GlcNAc(a1-3)Gal(b1-4)GlcNAc
# In short: as §1
# [27] = biological target: GlcNAc(a1-4)Gal(b1-3)GlcNAc
# In short: as §1
# [28] = biological target: GlcNAc(a1-4)Gal(b1-4)GalNAc
# In short: as §1
# [29] = biological target: GlcNAc(a1-4)Gal(b1-4)GlcNAc
# In short: as §1
# [30] = biological target: GlcNAc(a1-4)Gal(b1-4)GlcNAc(b1-3)Gal(b1-4)Glc
# In short: as §1
# [31] = biological target: GlcNAc(a1-4)Gal(b1-4)GlcNAc(b1-3)Gal(b1-4)GlcNAc
# In short: as §1
# [32] = biological target: GlcNAc(a1-4)Gal(b1-4)GlcNAc(b1-3)Gal(b1-4)GlcNAc(b1-3)Gal(b1-4)GlcNAc
# In short: as §1
# [33] = biological target: GlcNAc(a1-4)Gal(b1-4)GlcNAc(b1-3)Gal(b1-4)[Fuc(a1-3)]GlcNAc(b1-3)Gal(b1-4)[Fuc(a1-3)]GlcNAc
# In short: as §1
# [34] = biological target: GlcNAc(a1-6)Gal(b1-4)GlcNAc
# In short: as §1
# [35] = biological target: GlcNAc(b1-2)Gal(b1-3)GalNAc
# In short: as §1
# [36] = biological target: GlcNAc(b1-2)Man(a1-3)[GlcNAc(b1-2)Man(a1-6)]Man(b1-4)GlcNAc(b1-4)GlcNAc
# In short: as §1
# [37] = biological target: GlcNAc(b1-2)Man(a1-3)[GlcNAc(b1-2)Man(a1-6)]Man(b1-4)GlcNAc(b1-4)[Fuc(a1-6)]GlcNAc
# In short: as §1
# [38] = biological target: GlcNAc(b1-2)Man(a1-3)[GlcNAc(b1-4)][GlcNAc(b1-2)Man(a1-6)]Man(b1-4)GlcNAc(b1-4)GlcNAc
# In short: as §1
# [39] = biological target: GlcNAc(b1-2)[GlcNAc(b1-4)]Man(a1-3)[GlcNAc(b1-2)Man(a1-6)]Man(b1-4)GlcNAc(b1-4)GlcNAc
# In short: as §1
# [40] = biological target: GlcNAc(b1-2)[GlcNAc(b1-4)]Man(a1-3)[GlcNAc(b1-4)][GlcNAc(b1-2)Man(a1-6)]Man(b1-4)GlcNAc(b1-4)GlcNAc
# In short: as §1
# [41] = biological target: GlcNAc(b1-2)[GlcNAc(b1-4)]Man(a1-3)[GlcNAc(b1-4)][GlcNAc(b1-2)[GlcNAc(b1-6)]Man(a1-6)]Man(b1-4)GlcNAc(b1-4)GlcNAc
# In short: as §1
# [42] = biological target: GlcNAc(b1-2)[GlcNAc(b1-6)]Man(a1-6)[GlcNAc(b1-2)Man(a1-3)]Man(b1-4)GlcNAc(b1-4)GlcNAc
# In short: as §1
# [43] = biological target: GlcNAc(b1-2)[GlcNAc(b1-6)]Man(a1-6)[GlcNAc(b1-2)Man(a1-3)][GlcNAc(b1-4)]Man(b1-4)GlcNAc(b1-4)GlcNAc
# In short: as §1
# [44] = biological target: GlcNAc(b1-3)Gal
# In short: as §1
# [45] = biological target: GlcNAc(b1-3)Gal(b1-3)GalNAc
# In short: as §1
binder,measurement,setting,value
B1,glycan array binding signal (z-score),[1],-0.975
same,glycan array binding signal (z-score),[2],-0.931
same,glycan array binding signal (z-score),[3],-0.816
same,glycan array binding signal (z-score),[4],-0.001
same,glycan array binding signal (z-score),[5],-0.197
same,glycan array binding signal (z-score),[6],-0.238
same,glycan array binding signal (z-score),[7],0.047
same,glycan array binding signal (z-score),[8],-0.083
same,glycan array binding signal (z-score),[9],0.296
same,glycan array binding signal (z-score),[10],-0.381
same,glycan array binding signal (z-score),[11],0.319
same,glycan array binding signal (z-score),[12],0.148
same,glycan array binding signal (z-score),[13],-0.041
same,glycan array binding signal (z-score),[14],-0.385
same,glycan array binding signal (z-score),[15],1.17
same,glycan array binding signal (z-score),[16],0.054
same,glycan array binding signal (z-score),[17],-0.28
same,glycan array binding signal (z-score),[18],-0.87
same,glycan array binding signal (z-score),[19],-0.939
same,glycan array binding signal (z-score),[20],-0.88
same,glycan array binding signal (z-score),[21],-0.786
same,glycan array binding signal (z-score),[22],-0.407
same,glycan array binding signal (z-score),[23],1.13
same,glycan array binding signal (z-score),[24],0.61
same,glycan array binding signal (z-score),[25],0.164
same,glycan array binding signal (z-score),[26],-0.232
same,glycan array binding signal (z-score),[27],-0.592
same,glycan array binding signal (z-score),[28],0.819
same,glycan array binding signal (z-score),[29],-0.806
same,glycan array binding signal (z-score),[30],0.365
same,glycan array binding signal (z-score),[31],0.345
same,glycan array binding signal (z-score),[32],0.531
same,glycan array binding signal (z-score),[33],0.712
same,glycan array binding signal (z-score),[34],6.83
same,glycan array binding signal (z-score),[35],0.336
same,glycan array binding signal (z-score),[36],-0.211
same,glycan array binding signal (z-score),[37],0.697
same,glycan array binding signal (z-score),[38],-0.657
same,glycan array binding signal (z-score),[39],0.255
same,glycan array binding signal (z-score),[40],-0.455
same,glycan array binding signal (z-score),[41],0.126
same,glycan array binding signal (z-score),[42],-0.26
same,glycan array binding signal (z-score),[43],-0.098
same,glycan array binding signal (z-score),[44],-0.319
same,glycan array binding signal (z-score),[45],-0.259

# 2 entries from above, tab-delimited:
binder	measurement	setting	value
B1	glycan array binding signal (z-score)	[5]	-0.197
same	glycan array binding signal (z-score)	[6]	-0.238
